About 7,700 (2.3%) of roughly 330,000 compounds were called active. The shares of active, inactive and inconclusive entries below differ from those in the screen. The call rests on the fitted dose curve; in most records, active means well fitted inhibition curve with a large enough effect; inconclusive means small, poorly fitted or top-dose-only effect, or effect the other way; inactive means flat fitted curve, though single readings scatter. Potencies of inconclusive entries are doubtful fits and often do not repeat.
Assay: qHTS screen for small molecules that inhibit ELG1-dependent DNA repair in human embryonic kidney (HEK293T) cells expressing luciferase-tagged ELG1; further: nearly all actives have a fitted effect of over 55% in size
Conditions: HEK293T ELG1-luciferase reporter, luminescence, 16 h, DNA damage induced by 5-fluorouridine; series mostly up to 46.1 µM
Outline: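 Step one: seed 2,000 cells per well. Step two: pin-transfer compound or DMSO alongside 5-fluorouridine. Step three: incubate 16 hr, 37 °C, 5% CO2. Step four: add ONE-Glo, wait 30 min, read luminescence.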
Potency means the concentration at half of the fitted maximal effect.

| Compound | Potency |
| --- | --- |
| C=CCc1c(C)c(C#N)c2nc3ccccc3n2c1N1CCCCC1 | inconclusive: 3.26 µM [inhibitor, single point] |
| COc1ccc(S(=O)(=O)N(Cc2cc3ccc(OC)cc3[nH]c2=O)CC2COCCO2)cc1 (stereo not drawn) | inconclusive: 18.4 µM [inhibitor, single point] |
| COCCNC(=O)c1cnn2c(C(F)(F)F)cc(-c3ccc4c(c3)OCO4)nc12 | inconclusive: 5.8 µM [inhibitor, single point] |
| CCOc1ccc(CCNC(=O)c2cc3ccccn3n2)cc1OCC | inconclusive: 18.4 µM [inhibitor, single point] |
| COc1ccc2ncc(S(=O)(=O)c3ccccc3)c(N3CCC4(CC3)OCCO4)c2c1 | inconclusive: 25.9 µM [inhibitor, single point] |
| NNC(=S)Nc1cccc(-c2n[nH]c(=S)o2)c1 | inactive |
| c1ccc2[nH]c(NCc3ccc4c(c3)OCO4)nc2c1 | inconclusive: 14.6 µM [activator, partial curve] |
| CCN(CC(=O)Nc1c(C(=O)OC)[nH]c2ccc(Cl)cc12)c1ccc2c(c1)OCO2 | active: 23.1 µM |
| CCc1ccc(N(C(=O)c2ccco2)C(C(=O)NC2CCCC2)c2ccncc2)cc1 (stereo not drawn) | inconclusive: 13 µM [activator, partial curve] |
| CCCCNC(=S)N(CCN(CC)CC)Cc1cc2cc3c(cc2[nH]c1=O)OCO3 | inactive |
| C=CCCN(C(CC(C)C)C(=O)OC)S(=O)(=O)c1cc(Br)ccc1Br (stereo not drawn) | inactive |
| NS(=O)(=O)c1ccc(NC(=S)NCCc2ccccc2)cc1 | inconclusive: 8.2 µM [activator, partial curve] |
| COc1ccc(N2CCCn3c2nc2c3c(=O)n(Cc3ccccc3F)c(=O)n2C)c(OC)c1 | inconclusive: 29.1 µM [inhibitor, single point] |
| COc1ccc(C(=O)C2CCCN(C(=O)c3noc4c3CCCC4)C2)c(C)c1 (stereo not drawn) | active: 25.9 µM |
| CC1=C/C(=N\N=C2\NC(=O)C(CC(=O)Nc3ccccc3F)S2)CC(C)(C)C1 (stereo not drawn) | inconclusive: 23.1 µM [inhibitor, partial curve] |
| COc1cc2cnc(-c3ccccc3F)cc2cc1OC | inconclusive: 6.51 µM [activator, single point] |
| Cc1cccc(-n2nnnc2SCc2csc(-c3ccccc3)n2)c1 | inconclusive: 23.1 µM [inhibitor, single point] |
| COc1ccc(C(=O)Nc2ncc3c(n2)CC(C)CC3=O)cc1 (stereo not drawn) | inconclusive: 23.1 µM [activator, partial curve, poor fit] |

Taken from above:
CCOc1ccc(CCNC(=O)c2cc3ccccn3n2)cc1OCC – Potency: inconclusive: 18.4 µM [inhibitor, single point]
NS(=O)(=O)c1ccc(NC(=S)NCCc2ccccc2)cc1 – Potency: inconclusive: 8.2 µM [activator, partial curve]
